Measurements from the supplement of paper PMC3334620.
Whole data set: some 33,000 sequences, median “E-score (-0.5 to 0.5)” near -0.016, cut for the highest 2% near 0.3. The list shows a part of the results.

Target: T1, Yer184c (UniProt P39961)
T1 sequence: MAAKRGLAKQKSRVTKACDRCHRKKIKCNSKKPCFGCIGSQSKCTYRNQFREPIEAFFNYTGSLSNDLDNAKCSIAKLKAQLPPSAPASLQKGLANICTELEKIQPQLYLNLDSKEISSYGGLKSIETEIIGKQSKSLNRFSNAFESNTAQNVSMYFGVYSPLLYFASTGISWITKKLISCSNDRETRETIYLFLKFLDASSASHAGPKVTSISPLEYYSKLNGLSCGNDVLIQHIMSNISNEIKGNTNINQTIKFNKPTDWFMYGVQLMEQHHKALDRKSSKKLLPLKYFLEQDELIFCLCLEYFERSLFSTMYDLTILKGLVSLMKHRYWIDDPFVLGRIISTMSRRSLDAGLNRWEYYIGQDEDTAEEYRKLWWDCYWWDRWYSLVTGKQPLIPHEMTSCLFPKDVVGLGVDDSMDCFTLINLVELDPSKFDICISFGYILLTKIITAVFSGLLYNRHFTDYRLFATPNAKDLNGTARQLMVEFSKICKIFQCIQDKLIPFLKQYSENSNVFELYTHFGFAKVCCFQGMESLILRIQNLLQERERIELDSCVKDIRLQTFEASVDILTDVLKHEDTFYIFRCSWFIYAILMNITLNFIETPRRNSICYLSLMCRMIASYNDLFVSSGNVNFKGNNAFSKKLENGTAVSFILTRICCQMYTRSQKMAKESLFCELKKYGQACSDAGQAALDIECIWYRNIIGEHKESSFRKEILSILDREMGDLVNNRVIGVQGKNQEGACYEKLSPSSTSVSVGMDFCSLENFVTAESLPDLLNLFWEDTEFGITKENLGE
Assay: PBM E-score (8-mer binding enrichment) (E-score (-0.5 to 0.5)); higher = stronger / more preferred TF binding
Settings: protein concentration: 100 nM; construct: GST-full length
Method in brief: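 Masliner-normalised scans of fluorescent anti-GST signal were the basis for scoring. That signal came from GST-tagged yeast transcription factors applied at about 100-200 nM to double-stranded universal all-10-mer Agilent arrays on fresh or once-stripped slides. Each ungapped eight-base word, pooled with its reverse complement, received an E-score from the Universal PBM Analysis Suite.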

Row | Sequence | PBM E-score
1 | CTCGAGAA | 0.0249
2 | GTAAAACA | -0.098
3 | AGTAGTTA | -0.0726
4 | AGTCGGAT | 0.198
5 | ATGCTAGG | -0.151
6 | CGCTATGA | -0.0231
7 | GCTGGTAA | -0.00124
8 | CGGCATCA | 0.283
9 | AAGTCATT | -0.189
10 | CAATGAGC | -0.0433
11 | TATAAAAA | 0.373
12 | AGAGGTAG | -0.213
13 | CGGCGTCC | 0.205
14 | CGAGCCCA | -0.128
15 | ACCGCTAC | -0.101
16 | AGTCGCCC | -0.265
17 | TGATCCAA | 0.0844
18 | ATTGCGTA | -0.0982
19 | AAGTGGCC | -0.219
20 | AAGTACTA | 0.125
21 | ATAGCTAT | 0.229
22 | CATCCGCG | 0.0676
23 | AATGACGT | -0.101
24 | CGTAATGA | -0.0865
25 | ATAAGGAT | 0.0597

Row | Sequence | PBM E-score
26 | ACAGCTTA | -0.107
27 | CTTGAAGA | -0.0387
28 | ACTATACA | 0.0199
29 | CGAGGGTA | -0.14
30 | TAATATGA | 0.131
31 | AGACCGTG | -0.0237
32 | ACGTGAGC | -0.186
33 | AGCTCGCC | -0.0877
34 | GCATCACA | 0.093
35 | GTCTTGCA | 0.0873
36 | AATCTACT | 0.0967
37 | GCATCGAA | -0.0557
38 | GCCTACAC | -0.202
39 | CTGCGGGA | -0.0974
40 | ATTCGTGG | -0.0833
41 | ACGCGTCA | -0.0376
42 | GTCTGACA | -0.00408
43 | TAACATCA | 0.103
44 | ACCCAGGG | -0.213
45 | GAATCCGC | 0.0481
46 | TAGGACGA | -0.119
47 | CCGACCGC | -0.114
48 | CGCAGATC | -0.00778
49 | CTGATACA | -0.0209
50 | CGACTACG | -0.0372

Taken from above:
PBM E-score, CTGATACA reads -0.0209
PBM E-score, CTTGAAGA reads -0.0387
PBM E-score, GCATCGAA reads -0.0557
PBM E-score, GTCTGACA reads -0.00408
PBM E-score, CGCAGATC reads -0.00778
PBM E-score, ATTCGTGG reads -0.0833
PBM E-score, TAATATGA reads 0.131

The list continues.

Row | Sequence | PBM E-score
51 | AGCCACAC | -0.127
52 | AAACTCAT | 0.235
53 | CGGCGCCG | 0.443
54 | TAAACTCA | 0.103
55 | CGAGTCAA | 0.0285
56 | AAGCCTAA | 0.0316
57 | ATGCATGA | 0.0229
58 | CTAGACTC | -0.252
59 | ATACCGTC | 0.0873
60 | AAGTCTCC | -0.101
61 | CATGAGCA | -0.042
62 | CAATTGTG | -0.0298
63 | TGCGTGAA | 0.158
64 | CGAAACAG | -0.0145
65 | AGGTGCAT | -0.0459
66 | CAGCTGTC | 0.0174
67 | GCTACCAC | -0.176
68 | AAGGGGTA | -0.351
69 | AACACCGA | 0.0806
70 | AACTCTCC | -0.0166
71 | AGACATGC | -0.192
72 | ACCTCGCG | -0.155
73 | CTCTTTGA | 0.0431
74 | ATCAATTG | 0.136
75 | GCCACCCA | -0.202

Row | Sequence | PBM E-score
76 | ATGAAGGA | 0.147
77 | CCGTTGCA | -0.0784
78 | ACGTGCAG | -0.239
79 | GTTATGAA | 0.119
80 | CAATTGAA | -0.135
81 | CGCTGAAG | -0.0407
82 | ACCTACCG | -0.0673
83 | AACTCCTT | -0.0293
84 | GAGTCATC | -0.131
85 | CTGGATGC | -0.204
86 | CCCACACA | -0.213
87 | ACGACCTG | -0.256
88 | TAAGCCGA | 0.369
89 | AAGTGAGC | -0.00465
90 | GGGGATGA | -0.264
91 | GTAAGCTA | 0.0243
92 | ACTTCTGA | -0.174
93 | CAAACAAC | 0.274
94 | ATAAACCC | 0.0901
95 | ACTACCTC | -0.0352
96 | CCTGATGA | 0.0301
97 | GACAACGC | 0.0521
98 | AAGAATCG | 0.168
99 | ACTTCGTA | 0.0175
100 | AGCGTCAG | -0.234

Row | Sequence | PBM E-score
101 | ACTTACCC | -0.0502
102 | AAGCTAAA | -0.0461
103 | CAGTTGCG | 0.0601
104 | ACAGTTTG | -0.11
105 | CGGTCACC | 0.076
106 | ATTTTGAG | 0.143
107 | AGCGGGCA | -0.202
108 | ACTGTACG | -0.218
109 | CAAATGGA | 0.0465
110 | CAAGCCAG | -0.22
111 | AGCCTATC | -0.11
112 | CCGTACAA | 0.125
113 | CGAGCCAG | 0.145
114 | ACACTGGT | -0.258
115 | ATAACGTG | -0.139
116 | AATCCACC | -0.157
117 | CACTAGCC | 0.125
118 | ATGTGCAA | -0.0551
119 | ATATGAAG | -0.0732
120 | CACAAAAA | 0.223
121 | AAAGTTAG | 0.154
122 | ATGTCGCC | -0.197
123 | GCTGGTTA | 0.0291
124 | CATACCAG | -0.15
125 | AACAGCTC | 0.0147

Row | Sequence | PBM E-score
126 | GCGCCCCA | -0.12
127 | AGGAAATG | 0.0726
128 | TAAGTAAA | 0.0677
129 | AACCGCCT | 0.0736
130 | ACGATTAT | 0.0164
131 | AGCAGGTG | -0.0507
132 | CAAAGAAA | 0.178
133 | GACTGACA | 0.058
134 | GACTCTCC | -0.118
135 | AAATCCGT | 0.181
136 | ATTCGGTG | 0.155
137 | AGAGTCCA | -0.161
138 | AAGCTACT | 0.00012
139 | CTACCGGC | 0.0792
140 | ACCTTGCG | -0.0337
141 | GCTCCATA | -0.155
142 | CGTGCTCC | 0.079
143 | ATTATCGG | 0.224
144 | GGGAGTCA | -0.168
145 | ACCCCGGG | 0.263
146 | GACAGAAC | -0.00544
147 | CTGCAAGA | -0.0068
148 | ATAACCAT | -0.13
149 | ACCCCATG | -0.12
150 | AAGACCGA | 0.228

Row | Sequence | PBM E-score
151 | AGCGCTAT | 0.0285
152 | CGTTCTGA | -0.0441
153 | GCAGTTCA | -0.0795
154 | AGAACTCG | 0.0462
155 | CAGGTTTC | -0.0188
156 | CCGGGTTA | 0.25
157 | AGTCACGA | -0.0213
158 | CGTTACTA | -0.0021
159 | CCGGAGGC | 0.139
160 | CTCTCACA | -0.0505
161 | GTGTGCCA | -0.11
162 | CTGTGAGA | -0.0755
163 | AAGCGCTC | 0.0112
164 | ATTCCTAC | -0.119
165 | ATTATCCG | 0.36
166 | AAGTCAAT | -0.00529
167 | AGTATTTG | -0.0716
168 | GATGACGC | -0.219
169 | AGAGCAAC | -0.0202
170 | CGCATGGC | -0.0253
171 | GAAAGACA | 0.0427
172 | CGGCAATC | 0.291
